The values that follow come from paper PMC5967306.

These are yes or no findings as the source states them, for the method shown. In cells and extracts the contact can be indirect. Some results given as binding are weak or reduced against the parent protein; the word gives no strength. Where a sequence is shown, tags or fusion partners need not be part of it.

Assay [1] deals with T1, FLAG-tagged wild-type FAM188B (human) (UniProt Q4G0A6).
T1 sequence: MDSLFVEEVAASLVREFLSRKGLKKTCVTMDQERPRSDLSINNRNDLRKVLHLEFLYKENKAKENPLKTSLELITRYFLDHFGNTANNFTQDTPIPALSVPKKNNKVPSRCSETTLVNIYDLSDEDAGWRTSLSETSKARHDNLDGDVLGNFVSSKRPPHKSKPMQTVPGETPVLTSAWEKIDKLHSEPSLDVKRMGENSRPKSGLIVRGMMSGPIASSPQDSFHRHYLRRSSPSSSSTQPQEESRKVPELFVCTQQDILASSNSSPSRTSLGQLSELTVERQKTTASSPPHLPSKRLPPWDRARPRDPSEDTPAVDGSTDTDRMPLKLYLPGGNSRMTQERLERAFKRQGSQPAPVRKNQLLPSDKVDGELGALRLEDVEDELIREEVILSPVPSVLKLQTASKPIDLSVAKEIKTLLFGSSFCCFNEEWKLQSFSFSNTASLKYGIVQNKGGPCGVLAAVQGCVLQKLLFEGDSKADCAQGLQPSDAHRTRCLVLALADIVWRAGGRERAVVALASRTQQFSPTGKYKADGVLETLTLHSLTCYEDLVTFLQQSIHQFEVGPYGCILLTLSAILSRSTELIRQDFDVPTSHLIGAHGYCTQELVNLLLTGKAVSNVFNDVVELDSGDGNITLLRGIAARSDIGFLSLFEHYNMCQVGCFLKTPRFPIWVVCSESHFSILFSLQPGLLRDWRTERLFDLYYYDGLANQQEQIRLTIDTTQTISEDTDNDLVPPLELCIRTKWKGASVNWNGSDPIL
Put plainly: co-IP; HCT-116 cells with FAM188B overexpression; FAM188B immunoprecipitates blotted for USP7.

The target in assay [2] is T1, FLAG-tagged wild-type FAM188B (human). Put plainly: co-IP; FLAG-tagged wild-type or deletion-mutant FAM188B overexpressed in HCT-116 cells, immunoprecipitated with anti-FLAG antibodies, blotted for USP7.

For the substance “USP7 (from UniProt Q93009 1-1102) (enzyme)”, the binding entry in assay [1] and in assay [2] was “binds” throughout.
